# Laboratory results: patent US12144864B2 (Regeneron Pharmaceuticals, Inc., priority 2018, dated 2024)
# Assay: peptide synthesis
# [1] = conjugation step, HPLC-MS, Agilent 1200 HPLC/6100 SQ, C18 columns, DAD (214 nm and 254 nm), ELSD
# [2] = whole synthesis, HPLC-MS, Agilent 1200 HPLC/6100 SQ, C18 columns, DAD (214 nm and 254 nm), ELSD
Substance,step yield (coupling step) [%],final HPLC purity [1] [%],also measured
"2-4-(2-((1R,3R)-1-acetoxy-3-((2S,3S)—N-(hex-5-ynyl)-3-methyl-2-((R)-1-methylpiperidine-2-carboxamido)pentanamido)-4-methylpentyl)thiazole-4-carboxamido)-5-(3-((benzyloxycarbonyl)(methyl)amino)-4-fluorophenyl)-2,2-dimethylpentanoic acid",47,–,–
"(2S,3S,4S,5R,6S)-6-(4-{[({4-[(2S)-2-({2-[(1R,3R)-1-(Acetyloxy)-4-methyl-3-[(2S,3S)-3-methyl-2-{[(2R)-1-methylpiperidin-2-yl]formamido}-N-(pent-4-yn-1-yloxy)pentanamido]pentyl]-1,3-thiazol-4-yl}formamido)-4-carboxy-4,4-dimethylbutyl]phenyl}carbamoyl)oxy]methyl}-2-({2-[2-(cyclooct-2-yn-1-yloxy)acetamido]ethyl}carbamoyl)phenoxy)-3,4,5-trihydroxyoxane-2-carboxylic acid",36,>95,–
"(4S)-5-{4-[(2S)-2-[(2S)-2-[1-(4-{2-Azatricyclo[10.4.0.0^4,9]hexadeca-1(12),4(9),5,7,13,15-hexaen-10-yn-2-yl}-4-oxobutanamido)-3,6,9,12-tetraoxapentadecan-15-amido]-3-methylbutanamido]propanamido]-3-fluorophenyl}-4-({2-[(1R,3R)-3-[(2S,3S)—N-hexyl-3-methyl-2-{[(2R)-1-methylpiperidin-2-yl]formamido}pentanamido]-4-methyl-1-[(methylcarbamoyl)oxy]pentyl]-1,3-thiazol-4-yl}formamido)-2,2-dimethylpentanoic acid",–,>99,conjugation yield (conjugation step): 65%
"(S)-4-(2-((1R,3R)-1-Acetoxy-3-((2S,3S)—N-(4-(1-benzyl-1H-1,2,3-triazol-4-yl)butyl)-3-methyl-2-((R)-1-methylpiperidine-2-carboxamido)pentanamido)-4-methylpentyl)thiazole-4-carboxamido)-5-(4-aminophenyl)-2,2-dimethylpentanoic acid",–,–,step yield (late stage modification step): 50% yield; final HPLC purity [2]: 100%
"4-({2-[(1R,3R)-1-(Acetyloxy)-3-[(2S,3S)—N-hexyl-3-methyl-2-{[(2R)-1-methylpiperidin-2-yl]formamido}pentanamido]-4-methylpentyl]-1,3-thiazol-4-yl}formamido)-5-(3-amino-4-fluorophenyl)-2,2-dimethylpentanoic acid",–,–,step yield (late stage modification step): 23%; final HPLC purity [2]: 100%
"(4S)-4-({2-[(1R,3R)-1-(Acetyloxy)-4-methyl-3-[(2S,3S)-3-methyl-2-{[(2R)-1-methylpiperidin-2-yl]formamido}-N-(pentyloxy)pentanamido]pentyl]-1,3-thiazol-4-yl}formamido)-5-{4-[(2S)-2-[(2S)-2-[1-(4-{2-azatricyclo[10.4.0.04,^9]hexadeca-1(12),4(9),5,7,13,15-hexaen-10-yn-2-yl}-4-oxobutanamido)-3,6,9,12-tetraoxapentadecan-15-amido]-3-methylbutanamido]-5-(carbamoylamino)pentanamido]phenyl}-2,2-dimethylpentanoic acid",–,100,conjugation yield (conjugation step): 67%
"(4S)-4-({2-[(1R,3R)-1-(Acetyloxy)-4-methyl-3-[(2S,3S)-3-methyl-2-{[(2R)-1-methylpiperidin-2-yl]formamido}-N-(pent-4-yn-1-yloxy)pentanamido]pentyl]-1,3-thiazol-4-yl}formamido)-5-(4-aminophenyl)-2,2-dimethylpentanoic acid",27,–,"final HPLC purity (coupling step, Method B): 95%; final HPLC purity [2]: 98%"
"(4S)-4-({2-[(1R,3R)-1-(Acetyloxy)-4-methyl-3-[(2S,3S)-3-methyl-2-{[(2R)-1-methylpiperidin-2-yl]formamido}-N-(pent-4-yn-1-yloxy)pentanamido]pentyl]-1,3-thiazol-4-yl}formamido)-5-{4-[(2S)-2-aminopropanamido]phenyl}",55,–,–
"(4S)-4-({2-[(1R,3R)-1-(Acetyloxy)-4-methyl-3-[(2S,3S)-3-methyl-2-{[(2R)-1-methylpiperidin-2-yl]formamido}-N-(pent-4-yn-1-yloxy)pentanamido]pentyl]-1,3-thiazol-4-yl}formamido)-5-(4-{2-[2-(2-{2-[2-(cyclooct-2-yn-1-yloxy)acetamido]acetamido}acetamido)acetamido]acetamido}phenyl)-2,2-dimethylpentanoic acid",–,95,conjugation yield (conjugation step): 87%
"(4S)-4-({2-[(1R,3R)-1-(Acetyloxy)-4-methyl-3-[(2S,3S)-3-methyl-2-{[(2R)-1-methylpiperidin-2-yl]formamido}-N-(pentyloxy)pentanamido]pentyl]-1,3-thiazol-4-yl}formamido)-5-[4-(2-aminoacetamido)phenyl]-2,2-dimethylpentanoic acid",69,–,–
"4-({2-[(1R,3R)-1-(Acetyloxy)-3-[(2S,3S)—N-(hex-5-yn-1-yl)-3-methyl-2-{[(2R)-1-methylpiperidin-2-yl]formamido}pentanamido]-4-methylpentyl]-1,3-thiazol-4-yl}formamido)-5-[3-(dibenzylamino)-4-fluorophenyl]-2,2-dimethylpentanoic acid",40,–,–
"(4S)-4-({2-[(1R,3R)-1-(Acetyloxy)-4-methyl-3-[(2S,3S)-3-methyl-2-{[(2R)-1-methylpiperidin-2-yl]formamido}-N-(pent-4-yn-1-yloxy)pentanamido]pentyl]-1,3-thiazol-4-yl}formamido)-5-{4-[({[3-({2-[2-(cyclooct-2-yn-1-yloxy)acetamido]ethyl}carbamoyl)-4-{[(2S,3R,4S,5S,6R)-3,4,5-trihydroxy-6-(hydroxymethyl)oxan-2-yl]oxy}phenyl]methoxy}carbonyl)amino]phenyl}-2,2-dimethylpentanoic acid",29,>95,–
"(4S)-4-({2-[(1R,3R)-1-(acetyloxy)-3-[(2S,3S)—N-(hex-5-yn-1-yl)-3-methyl-2-{[(2R)-1-methylpiperidin-2-yl]formamido}pentanamido]-4-methylpentyl]-1,3-thiazol-4-yl}formamido)-5-(4-{[({4-[(2S)-2-[(2S)-2-[1-(4-{2-azatricyclo[10.4.0.04,9]hexadeca-1(12),4(9),5,7,13,15-hexaen-10-yn-2-yl}-4-oxobutanamido)-3,6,9,12-tetraoxapentadecan-15-amido]-3-methylbutanamido]-5-(carbamoylamino)pentanamido]phenyl}methoxy)carbonyl]amino}phenyl)-2,2-dimethylpentanoic acid",–,95,conjugation yield (conjugation step): 35%
"4-(2-((1R,3R)-1-acetoxy-3-((2S,3S)—N-hexyl-3-methyl-2-((R)-1-methylpiperidine-2-carboxamido)pentanamido)-4-methylpentyl)thiazole-4-carboxamido)-5-(4-fluoro-3-(methylamino)phenyl)-2,2-dimethylpentanoic acid",–,–,step yield (late stage modification step): 38%; final HPLC purity [2]: 100%
"(4S)-4-({2-[(1R,3R)-1-(Acetyloxy)-4-methyl-3-[(2S,3S)-3-methyl-2-{[(2R)-1-methylpiperidin-2-yl]formamido}-N-(pentyloxy)pentanamido]pentyl]-1,3-thiazol-4-yl}formamido)-5-[4-(2-{2-[2-(2-aminoacetamido)acetamido]acetamido}acetamido)phenyl]",47,–,–
